Data set [1] in a line: Tryptophan fluorescence with SUVs. To be noted: for Blue shift of tryptophan emission maximum (in parentheses): EYPC/EYPG (7∶3, w/w) SUVs versus Tris-HCl buffer; for Tryptophan emission maximum: EYPC/EYPG (7∶3, w/w) SUVs, 1 mM lipid, 5 µM peptide, pH 7.4.
A short description of data set [2]: Tryptophan fluorescence with SUVs. The conditions noted are these: for Blue shift of tryptophan emission maximum (in parentheses): EYPC/CH (10∶1, w/w) SUVs versus Tris-HCl buffer; for Tryptophan emission maximum: EYPC/CH (10∶1, w/w) SUVs, 1 mM lipid, 5 µM peptide, pH 7.4.

These results are taken from PMC4256409, “Role of Phenylalanine and Valine^10 Residues in the Antimicrobial Activity and Cytotoxicity of Piscidin-1” (PLoS ONE, 2014).

In the case of “FFHHIWRGIVHVGKTIHRLVTG [Pis-F6W, Pis-1 analog, Phe6 replaced with Trp]”, in data set [1], the “Blue shift of tryptophan emission maximum (in parentheses)” value (shortened to “Blue shift”) was −24 and the Tryptophan emission maximum turned out to be 332. Further, in data set [2], the “Blue shift” value is −16 and the Tryptophan emission maximum was 334.

Regarding “FWHHIFRGIVHVGKTIHRLVTG [Pis-F2W, Pis-1 analog, Phe2 replaced with Trp]”, in data set [1], the “Blue shift” value is −26 and the Tryptophan emission maximum is given as 326. In data set [2], the “Blue shift” value was −22 and the Tryptophan emission maximum worked out at 330.

With Melittin [reference compound], in data set [1], the “Blue shift” value is −18 and the Tryptophan emission maximum is 332. In addition, in data set [2], the “Blue shift” value is listed as −18 and the Tryptophan emission maximum was determined as 332.

As to “WFHHIFRGIVHVGKTIHRLVTG [Pis-F1W, Pis-1 analog, Phe1 replaced with Trp]”, in data set [1], the “Blue shift” value is −12 and the Tryptophan emission maximum turned out to be 340. Also, in data set [2], the “Blue shift” value is reported as −14 and the Tryptophan emission maximum is reported as 338.
